Compound in this test: Cc1cc(ccc1-c1ccccc1)C(=O)N1CCCN(CC1)C(=O)CCl [compound 10]
Briefly: probe-labelled cysteine peptide fold change vs DMSO (competition) (log2 fold change); higher = less target engagement (more negative = stronger competition). The settings on record: THP-1, incubation time: 4 h.

Amino acid sequences for entries named in this document (tags omitted). A change or cut given only in a name is not applied to a line headed by its entry.
UniProt Q9Y263: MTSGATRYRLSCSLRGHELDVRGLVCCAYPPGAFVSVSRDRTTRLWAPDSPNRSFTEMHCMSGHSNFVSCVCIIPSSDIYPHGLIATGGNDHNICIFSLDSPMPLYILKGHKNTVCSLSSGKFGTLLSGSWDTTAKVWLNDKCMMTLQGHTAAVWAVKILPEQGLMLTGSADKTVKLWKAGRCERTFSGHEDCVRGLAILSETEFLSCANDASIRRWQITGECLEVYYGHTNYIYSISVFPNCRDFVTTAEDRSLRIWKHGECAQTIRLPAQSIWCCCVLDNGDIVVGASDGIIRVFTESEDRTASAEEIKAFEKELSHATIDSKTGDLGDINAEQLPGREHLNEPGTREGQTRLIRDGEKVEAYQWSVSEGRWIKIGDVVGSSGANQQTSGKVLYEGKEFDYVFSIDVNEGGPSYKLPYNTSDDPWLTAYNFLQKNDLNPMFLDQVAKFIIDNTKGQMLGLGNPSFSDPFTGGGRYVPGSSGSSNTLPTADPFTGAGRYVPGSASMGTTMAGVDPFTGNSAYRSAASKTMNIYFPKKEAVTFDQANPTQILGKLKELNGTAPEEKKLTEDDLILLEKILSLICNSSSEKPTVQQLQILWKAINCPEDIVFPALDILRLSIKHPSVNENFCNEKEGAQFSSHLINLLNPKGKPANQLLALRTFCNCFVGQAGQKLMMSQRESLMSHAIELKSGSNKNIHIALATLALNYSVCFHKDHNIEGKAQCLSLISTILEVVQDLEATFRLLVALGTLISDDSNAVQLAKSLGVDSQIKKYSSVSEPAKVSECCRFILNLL
UniProt Q10713: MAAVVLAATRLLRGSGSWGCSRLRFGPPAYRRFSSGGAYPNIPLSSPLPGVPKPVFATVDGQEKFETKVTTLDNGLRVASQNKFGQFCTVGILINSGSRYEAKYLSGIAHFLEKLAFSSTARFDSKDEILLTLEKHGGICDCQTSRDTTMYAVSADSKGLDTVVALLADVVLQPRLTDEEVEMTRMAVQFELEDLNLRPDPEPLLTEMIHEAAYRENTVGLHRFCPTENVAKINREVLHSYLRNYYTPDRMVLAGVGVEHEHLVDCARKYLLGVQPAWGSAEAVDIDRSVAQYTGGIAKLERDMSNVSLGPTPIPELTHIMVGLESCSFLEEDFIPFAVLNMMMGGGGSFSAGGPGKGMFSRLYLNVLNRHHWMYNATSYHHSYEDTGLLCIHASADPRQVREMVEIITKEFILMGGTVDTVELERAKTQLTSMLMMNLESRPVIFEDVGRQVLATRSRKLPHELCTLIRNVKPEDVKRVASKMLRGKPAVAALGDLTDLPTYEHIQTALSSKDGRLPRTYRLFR
UniProt O75439: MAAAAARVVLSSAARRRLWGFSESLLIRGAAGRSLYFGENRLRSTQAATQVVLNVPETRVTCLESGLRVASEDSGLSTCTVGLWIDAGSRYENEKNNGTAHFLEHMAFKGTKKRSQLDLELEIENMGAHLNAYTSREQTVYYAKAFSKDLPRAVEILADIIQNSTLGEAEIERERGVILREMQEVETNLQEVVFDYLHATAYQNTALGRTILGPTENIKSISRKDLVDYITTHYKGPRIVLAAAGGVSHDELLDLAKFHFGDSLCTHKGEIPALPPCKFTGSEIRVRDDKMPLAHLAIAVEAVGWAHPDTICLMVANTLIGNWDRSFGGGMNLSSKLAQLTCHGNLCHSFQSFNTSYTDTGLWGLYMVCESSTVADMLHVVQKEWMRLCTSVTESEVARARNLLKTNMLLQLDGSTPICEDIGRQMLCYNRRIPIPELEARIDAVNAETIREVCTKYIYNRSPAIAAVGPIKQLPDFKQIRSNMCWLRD
UniProt P29590: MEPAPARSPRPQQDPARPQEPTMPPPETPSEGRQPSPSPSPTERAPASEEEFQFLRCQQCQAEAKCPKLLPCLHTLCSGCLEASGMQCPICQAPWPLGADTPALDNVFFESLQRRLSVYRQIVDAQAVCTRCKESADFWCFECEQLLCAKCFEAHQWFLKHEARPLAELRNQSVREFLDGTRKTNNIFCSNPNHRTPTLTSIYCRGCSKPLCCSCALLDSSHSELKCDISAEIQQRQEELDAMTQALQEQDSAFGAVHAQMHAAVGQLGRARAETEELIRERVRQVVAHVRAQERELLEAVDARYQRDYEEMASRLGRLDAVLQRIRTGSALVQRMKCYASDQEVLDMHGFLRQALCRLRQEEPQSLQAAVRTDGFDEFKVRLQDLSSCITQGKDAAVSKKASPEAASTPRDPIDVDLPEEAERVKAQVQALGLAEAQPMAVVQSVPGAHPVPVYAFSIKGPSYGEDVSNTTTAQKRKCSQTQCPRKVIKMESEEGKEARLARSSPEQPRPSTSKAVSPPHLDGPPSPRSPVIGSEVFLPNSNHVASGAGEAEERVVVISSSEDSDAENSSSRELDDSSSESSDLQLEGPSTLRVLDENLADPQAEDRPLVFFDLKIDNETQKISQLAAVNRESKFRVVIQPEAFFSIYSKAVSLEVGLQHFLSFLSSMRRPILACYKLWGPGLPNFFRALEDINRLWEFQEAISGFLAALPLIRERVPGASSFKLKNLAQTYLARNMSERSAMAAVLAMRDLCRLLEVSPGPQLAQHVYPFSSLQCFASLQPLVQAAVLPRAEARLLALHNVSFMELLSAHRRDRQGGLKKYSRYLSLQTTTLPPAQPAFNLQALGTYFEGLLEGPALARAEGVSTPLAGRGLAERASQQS
UniProt O15031: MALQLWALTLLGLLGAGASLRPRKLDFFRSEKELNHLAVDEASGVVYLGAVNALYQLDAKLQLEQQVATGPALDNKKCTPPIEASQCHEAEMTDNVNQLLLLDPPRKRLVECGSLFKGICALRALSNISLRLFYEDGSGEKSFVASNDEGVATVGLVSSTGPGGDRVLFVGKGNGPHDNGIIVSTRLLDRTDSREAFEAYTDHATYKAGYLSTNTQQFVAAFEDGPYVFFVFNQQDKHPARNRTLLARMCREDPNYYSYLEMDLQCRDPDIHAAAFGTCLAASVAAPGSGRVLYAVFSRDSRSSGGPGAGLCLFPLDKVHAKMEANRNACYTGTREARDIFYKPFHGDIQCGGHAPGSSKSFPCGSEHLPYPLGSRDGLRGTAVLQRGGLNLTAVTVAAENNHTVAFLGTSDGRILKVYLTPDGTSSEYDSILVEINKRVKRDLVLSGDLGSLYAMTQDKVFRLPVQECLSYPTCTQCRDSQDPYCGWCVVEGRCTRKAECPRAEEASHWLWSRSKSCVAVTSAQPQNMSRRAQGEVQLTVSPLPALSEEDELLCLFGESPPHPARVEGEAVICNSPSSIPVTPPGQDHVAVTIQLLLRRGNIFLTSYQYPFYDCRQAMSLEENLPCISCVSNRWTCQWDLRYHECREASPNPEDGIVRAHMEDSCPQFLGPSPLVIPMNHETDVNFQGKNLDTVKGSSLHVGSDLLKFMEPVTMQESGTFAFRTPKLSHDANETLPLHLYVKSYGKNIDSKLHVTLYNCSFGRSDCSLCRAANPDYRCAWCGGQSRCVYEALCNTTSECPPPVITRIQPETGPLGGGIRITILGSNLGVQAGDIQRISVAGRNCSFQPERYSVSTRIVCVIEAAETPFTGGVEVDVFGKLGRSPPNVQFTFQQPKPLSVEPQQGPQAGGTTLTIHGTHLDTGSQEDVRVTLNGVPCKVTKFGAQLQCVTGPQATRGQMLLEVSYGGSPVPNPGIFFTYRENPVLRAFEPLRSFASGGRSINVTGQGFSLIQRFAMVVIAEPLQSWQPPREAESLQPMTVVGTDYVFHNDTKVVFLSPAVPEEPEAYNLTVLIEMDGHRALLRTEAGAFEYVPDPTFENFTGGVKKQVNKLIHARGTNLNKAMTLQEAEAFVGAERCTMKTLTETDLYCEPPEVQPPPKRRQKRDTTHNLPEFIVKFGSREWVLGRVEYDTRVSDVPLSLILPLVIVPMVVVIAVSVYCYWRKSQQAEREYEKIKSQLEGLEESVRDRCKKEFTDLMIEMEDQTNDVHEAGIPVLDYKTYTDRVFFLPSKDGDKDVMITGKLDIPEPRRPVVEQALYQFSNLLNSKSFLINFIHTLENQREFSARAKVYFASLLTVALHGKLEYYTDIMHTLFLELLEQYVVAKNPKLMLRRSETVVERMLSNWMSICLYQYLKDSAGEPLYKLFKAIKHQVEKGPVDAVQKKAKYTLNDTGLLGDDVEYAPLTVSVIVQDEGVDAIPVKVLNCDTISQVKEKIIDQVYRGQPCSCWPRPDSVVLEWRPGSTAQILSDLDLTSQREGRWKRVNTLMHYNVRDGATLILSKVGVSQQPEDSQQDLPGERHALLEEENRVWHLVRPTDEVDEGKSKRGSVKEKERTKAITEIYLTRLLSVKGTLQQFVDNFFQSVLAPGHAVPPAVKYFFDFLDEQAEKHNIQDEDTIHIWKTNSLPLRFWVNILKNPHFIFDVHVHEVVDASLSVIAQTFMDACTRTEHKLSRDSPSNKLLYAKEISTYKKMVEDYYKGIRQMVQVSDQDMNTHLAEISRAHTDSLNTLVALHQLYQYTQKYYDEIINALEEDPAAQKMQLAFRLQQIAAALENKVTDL
UniProt Q99570, whole entry, looked up: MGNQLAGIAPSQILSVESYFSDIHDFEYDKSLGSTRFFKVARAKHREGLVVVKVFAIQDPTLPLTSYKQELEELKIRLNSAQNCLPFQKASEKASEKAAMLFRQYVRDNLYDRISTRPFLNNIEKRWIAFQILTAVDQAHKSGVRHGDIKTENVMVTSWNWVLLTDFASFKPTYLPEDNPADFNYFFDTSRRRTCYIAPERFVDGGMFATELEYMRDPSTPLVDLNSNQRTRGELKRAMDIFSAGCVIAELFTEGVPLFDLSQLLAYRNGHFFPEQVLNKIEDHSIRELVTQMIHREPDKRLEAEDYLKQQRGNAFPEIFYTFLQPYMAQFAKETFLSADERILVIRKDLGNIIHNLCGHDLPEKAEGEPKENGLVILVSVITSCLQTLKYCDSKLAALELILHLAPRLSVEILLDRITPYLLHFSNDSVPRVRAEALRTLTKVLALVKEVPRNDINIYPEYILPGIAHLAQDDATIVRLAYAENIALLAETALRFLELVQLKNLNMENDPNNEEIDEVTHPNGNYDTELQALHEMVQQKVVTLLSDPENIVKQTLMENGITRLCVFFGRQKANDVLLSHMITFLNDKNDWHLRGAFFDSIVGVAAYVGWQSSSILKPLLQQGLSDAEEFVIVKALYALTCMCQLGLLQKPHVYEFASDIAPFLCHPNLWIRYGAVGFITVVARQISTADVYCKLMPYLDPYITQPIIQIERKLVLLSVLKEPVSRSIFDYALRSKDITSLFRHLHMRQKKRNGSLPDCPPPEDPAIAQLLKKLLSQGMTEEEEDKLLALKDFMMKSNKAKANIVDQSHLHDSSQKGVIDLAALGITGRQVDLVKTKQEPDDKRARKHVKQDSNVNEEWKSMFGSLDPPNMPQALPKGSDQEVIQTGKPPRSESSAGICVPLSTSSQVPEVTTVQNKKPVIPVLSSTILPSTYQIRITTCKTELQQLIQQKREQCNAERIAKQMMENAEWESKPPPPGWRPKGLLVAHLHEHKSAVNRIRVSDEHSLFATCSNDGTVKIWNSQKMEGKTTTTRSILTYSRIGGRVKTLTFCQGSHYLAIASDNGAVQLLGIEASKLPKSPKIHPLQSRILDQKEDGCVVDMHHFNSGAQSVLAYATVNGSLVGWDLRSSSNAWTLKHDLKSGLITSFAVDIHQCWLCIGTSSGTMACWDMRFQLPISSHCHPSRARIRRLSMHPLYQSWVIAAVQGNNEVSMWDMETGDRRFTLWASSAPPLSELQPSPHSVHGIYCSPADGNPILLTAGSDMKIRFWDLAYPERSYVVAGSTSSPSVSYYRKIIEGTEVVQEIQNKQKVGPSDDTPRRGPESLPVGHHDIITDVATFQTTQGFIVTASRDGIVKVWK

The list shows a part of the results.
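Note: competitive profiling in live THP-1 cells: cysteine peptides tagged with an iodoacetamide desthiobiotin (IA-DTB) probe, intensity after compound treatment relative to DMSO-treated cells.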

“PLEKHF1_Q96S99_129_QEWISHIEECVR (UniProt Q96S99)”: the “probe-labelled cysteine peptide fold change” value by setting is: (10 µM) 0.271; (50 µM) 0.463.

With “PLEKHG2_Q9H7P9_405_RLWIHCLQR (UniProt Q9H7P9)”, the “probe-labelled cysteine peptide fold change” value (10 µM) is 0.0514 and the “probe-labelled cysteine peptide fold change” value (50 µM) was -0.202.

Turning to “PKM_P14618_474_GIFPVLCK (UniProt P14618)”, the “probe-labelled cysteine peptide fold change” value is -0.00938 (10 µM) and 0.0753 (50 µM).

For “PKN3_Q6P5Z2_131_QGAENMTHTCASGTPK (UniProt Q6P5Z2)”, the “probe-labelled cysteine peptide fold change” value was -0.00333 (10 µM) and -0.199 (50 µM).

With “PKM_P14618_326_AGKPVICATQMLESMIK (UniProt P14618)”, the “probe-labelled cysteine peptide fold change” value by setting is: (10 µM) -0.212; (50 µM) -0.151.

In the case of “PLEC_Q15149_3295_SHRVPLDVACAR (UniProt Q15149)”, the “probe-labelled cysteine peptide fold change” value reads like this: (10 µM) -0.167; (50 µM) -0.623.

Take “PIK3R2_O00459_396_DGHYGFSEPLTFCSVVDLINHYR (UniProt O00459)”: the “probe-labelled cysteine peptide fold change” value by setting is: (10 µM) 0.268; (50 µM) 0.124.

As for “PLAA_Q9Y263_193_TFSGHEDCVR (UniProt Q9Y263)”, the “probe-labelled cysteine peptide fold change” value is -0.0329 (10 µM) and -0.164 (50 µM).

Take “PKN1_Q16512_120_LDLLHQQLQELHAHVVLPDPAATHDGPQSPGAGGPTCSATNLSR (UniProt Q16512)”: the “probe-labelled cysteine peptide fold change” value is, setting by setting: (10 µM) -0.165; (50 µM) -0.163.

Regarding “PLEC_Q15149_992_VLSSSGSEAAVPSVCFLVPPPNQEAQEAVTRLEAQHQALVTLWHQLHVDMK (UniProt Q15149)”, the “probe-labelled cysteine peptide fold change” value reads like this: (10 µM) -0.171; (50 µM) -0.237.

Regarding “PMPCA_Q10713_142_HGGICDCQTSR (UniProt Q10713)”, the “probe-labelled cysteine peptide fold change” value is, setting by setting: (10 µM) 0.179; (50 µM) 0.242.

Turning to “PLEKHA2_Q9HB19_253_THECLVK (UniProt Q9HB19)”, the “probe-labelled cysteine peptide fold change” value reads like this: (10 µM) 0.0157; (50 µM) -0.28.

For the target “PLOD1_Q02809_680_VGVDYEGGGCR (UniProt Q02809)”, the “probe-labelled cysteine peptide fold change” value by setting is: (10 µM) -0.225; (50 µM) 0.125.

Regarding “PNP_P00491_31_HRPQVAIICGSGLGGLTDK (UniProt P00491)”, the “probe-labelled cysteine peptide fold change” value was 0.0835 (10 µM) and 0.096 (50 µM).

For the target “PNKP_Q96T60_308_DFSCADR (UniProt Q96T60)”, the “probe-labelled cysteine peptide fold change” value is, setting by setting: (10 µM) -0.268; (50 µM) -0.0394.

Regarding “PLPBP_O94903_261_CAADVK (UniProt O94903)”, the “probe-labelled cysteine peptide fold change” value by setting is: (10 µM) -0.275; (50 µM) -0.287.

“PMPCB_O75439_277_GEIPALPPCK (UniProt O75439)”: the “probe-labelled cysteine peptide fold change” value reads like this: (10 µM) 0.153; (50 µM) 0.694.

“PML_P29590_143_ESADFWCFECEQLLCAK (UniProt P29590)”: the “probe-labelled cysteine peptide fold change” value was -0.0013 (10 µM) and -0.0429 (50 µM).

Consider PLAA_Q9Y263_788_VSECCR (UniProt Q9Y263), for which the “probe-labelled cysteine peptide fold change” value is 0.164 (10 µM) and -0.0317 (50 µM).

In the case of “PLXNB2_O15031_351_DIFYKPFHGDIQCGGHAPGSSK (UniProt O15031)”, the “probe-labelled cysteine peptide fold change” value was -0.134 (10 µM) and -0.127 (50 µM).

Regarding “PM20D2_Q8IYS1_14_MRPGGERPVEGGACNGR (UniProt Q8IYS1)”, the “probe-labelled cysteine peptide fold change” value reads like this: (10 µM) -0.16; (50 µM) -0.608.

Consider “PIK3R4_Q99570_84_LNSAQNCLPFQK (UniProt Q99570)”, for which the “probe-labelled cysteine peptide fold change” value is -0.17 (10 µM) and 0.0647 (50 µM).

Turning to “POFUT1_Q9H488_140_KTCPMK (UniProt Q9H488)”, the “probe-labelled cysteine peptide fold change” value (10 µM) is -0.0727 and the “probe-labelled cysteine peptide fold change” value (50 µM) is -0.0923.

As for “PLBD2_Q8NHP8_495_ACNPQPNGENAISAR (UniProt Q8NHP8)”, the “probe-labelled cysteine peptide fold change” value was 0.043 (10 µM) and -0.493 (50 µM).

Turning to “PLCL2_Q9UPR0_414_GWLSIDGFTNYLMSPDCYIFDPEHKK (UniProt Q9UPR0)”, the “probe-labelled cysteine peptide fold change” value is, setting by setting: (10 µM) 0.11; (50 µM) -0.0646.

Consider “PLCB2_Q00722_1169_ACECPPELCEQDPLIAK (UniProt Q00722)”, for which the “probe-labelled cysteine peptide fold change” value by setting is: (10 µM) -0.243; (50 µM) -0.299.

Consider “PJA2_O43164_48_HAYVSFKPCMTR (UniProt O43164)”, for which the “probe-labelled cysteine peptide fold change” value reads like this: (10 µM) -0.156; (50 µM) -0.00112.

Regarding “PLXNB2_O15031_489_DSQDPYCGWCVVEGR (UniProt O15031)”, the “probe-labelled cysteine peptide fold change” value is 0.00996 (10 µM) and -0.141 (50 µM).

With “PLEKHA3_Q9HB20_216_SVSHPGSCSSER (UniProt Q9HB20)”, the “probe-labelled cysteine peptide fold change” value (10 µM) is -0.0736 and the “probe-labelled cysteine peptide fold change” value (50 µM) was -0.638.

With “PIK3R4_Q99570_899_SESSAGICVPLSTSSQVPEVTTVQNK (UniProt Q99570)”, the “probe-labelled cysteine peptide fold change” value (10 µM) was -0.231 and the “probe-labelled cysteine peptide fold change” value (50 µM) was -0.179.

“PLEC_Q15149_965_QVEVTVHKGDECQLVGPAQPSHWK (UniProt Q15149)”: the “probe-labelled cysteine peptide fold change” value runs as follows: (10 µM) 0.024; (50 µM) -0.0327.

For “PML_P29590_189_TNNIFCSNPNHR (UniProt P29590)”, the “probe-labelled cysteine peptide fold change” value was 0.0467 (10 µM) and 0.0847 (50 µM).

Take “PMPCA_Q10713_88_FGQFCTVGILINSGSR (UniProt Q10713)”: the “probe-labelled cysteine peptide fold change” value runs as follows: (10 µM) 0.0613; (50 µM) 0.0304.

In the case of “PNO1_Q9NRX1_64_RPVFPPLCGDGLLSGK (UniProt Q9NRX1)”, the “probe-labelled cysteine peptide fold change” value is, setting by setting: (10 µM) -0.251; (50 µM) -0.122.

Turning to “PLXND1_Q9Y4D7_445_KLNIQLQPEQLDCGAAHLQHPLSILQPLK (UniProt Q9Y4D7)”, the “probe-labelled cysteine peptide fold change” value reads like this: (10 µM) 0.207; (50 µM) -0.987.

Regarding PNKP_Q96T60_437_YVQCAR (UniProt Q96T60), the “probe-labelled cysteine peptide fold change” value by setting is: (10 µM) 0.0801; (50 µM) -0.0414.

As for “PIK3R1_P27986_146_GLECSTLYR (UniProt P27986)”, the “probe-labelled cysteine peptide fold change” value reads like this: (10 µM) -0.0643; (50 µM) 0.0863.

On to “PNPLA6_Q8IY17_418_CVSMPGDISGLQGGPR (UniProt Q8IY17)”, for which the “probe-labelled cysteine peptide fold change” value reads like this: (10 µM) -0.22; (50 µM) -0.238.

“PIP5K1C_O60331_225_FYGLYCVQSGGK (UniProt O60331)”: the “probe-labelled cysteine peptide fold change” value is -0.105 (10 µM) and 0.32 (50 µM).

As to “PLEC_Q15149_1136_LQLEACETR (UniProt Q15149)”, the “probe-labelled cysteine peptide fold change” value is -0.0929 (10 µM) and -0.0925 (50 µM).

Turning to “PMPCB_O75439_389_LCTSVTESEVAR (UniProt O75439)”, the “probe-labelled cysteine peptide fold change” value reads like this: (10 µM) 0.229; (50 µM) 0.168.

For “PIP4P1_Q86T03_177_VICGHCK (UniProt Q86T03)”, the “probe-labelled cysteine peptide fold change” value by setting is: (10 µM) 0.0769; (50 µM) -0.0325.

On to “PLCG1_P19174_106_YQEDPAFRPDQSHCFVILYGMEFR (UniProt P19174)”, for which the “probe-labelled cysteine peptide fold change” value came to 0.19 (10 µM) and 0.263 (50 µM).

Values taken from the supplement of paper PMC12067093, “Discovery and optimisation of a covalent ligand for TRIM25 and its application to targeted protein ubiquitination” (Chemical Science, 2025).
